Measured values: PubChem BioAssay AID328 (DTP/NCI, 2004)
The list shows only some results of the screen, not a fair sample: it is rich in T/C values a quarter to a half above the control, in often repeated tests (any T/C) and in doses without a T/C. Further doses and runs are listed elsewhere. T/C gives the treated animals as a percentage of the vehicle group. Some entries give survivors of the animals treated and no T/C: the source files T/C as zero there, which appears to mark a toxic dose or a test without result, not a measured value. Some doses without a T/C left all or most animals alive at the check, yet need not have been tolerated: survival well below the control is almost never listed, so the zero probably covers shortened survival too. Counts of survivors are from the toxicity check (mostly the fifth day) where no day follows; animals may have died later. Schedule codes are those of the source, taken here to give the interval after Q, in days (D) or hours (H), and the number of doses after X. Some structures stand for samples that the source files as different forms (salt, stereo form or complex); doses refer to the form tested. Where survival is the endpoint, the PubChem record calls one and a half times the control and up active, and a quarter to a half above the control has no call in these data; cut-offs in other NCI protocols can differ. Counts like (3×) say how often a value occurs here. Some doses were run more than once; the values are given in rising order.

Tested on: BDF1 mice, P388 leukemia ip, median survival T/C
Assay: NCI In Vivo Anticancer Drug Screen. Data for tumor model P388 Leukemia (intraperitoneal) in B6D2F1 (BDF1) mice
Conditions: T/C endpoint: median survival time, higher T/C = longer survival
Outline: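 Reported as T/C, where T is the survival measurement in dosed animals and C the same measurement in vehicle controls.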

[1] = dose: 50.0 mg/kg/injection, schedule: Q01DX009 (ip), vehicle: saline
[2] = dose: 100.0 mg/kg/injection, schedule: Q01DX009 (ip), vehicle: saline
[3] = dose: 200.0 mg/kg/injection, schedule: Q01DX009 (ip), vehicle: saline
[4] = dose: 400.0 mg/kg/injection, schedule: Q01DX009 (ip), vehicle: saline
[5] = dose: 3.0 mg/kg/injection, schedule: Q01DX009 (ip), vehicle: water

`COc1cc2c(C)c[n+]3cc4cc5c(OC)c(OC)ccc5cc4cc3c2cc1OC` (tested in a mixture with another compound) was tested, and the survivor count (dose: 50.0 mg/kg/injection, schedule: Q04DX003 (ip), vehicle: other) was 3 of 6, the survivor count (dose: 100.0 mg/kg/injection, schedule: Q04DX003 (ip), vehicle: other) was 0 of 6 and the survivor count (dose: 200.0 mg/kg/injection, schedule: Q04DX003 (ip), vehicle: other) was 0 of 6. For the same compound, the survivor count (dose: 400.0 mg/kg/injection, schedule: Q04DX003 (ip), vehicle: other) was 0 of 6.

With `Clc1ccc(N=Cc2cccs2)cc1` the survivor count (dose: 25.0 mg/kg/injection, schedule: Q01DX009 (ip), vehicle: saline with Tween-80) was 6 of 6.

`C=C1C(=O)OC2/C=C(\C)C3(O)OC(C)(CC(OC(=O)C(C)C)C12)CC3O` (stereo not drawn) was tested, and the survivor count (dose: 20.0 mg/kg/injection, schedule: Q01DX009 (ip), vehicle: saline) was 3 of 6.

For `COCCCn1c(C(Cl)(Cl)Cl)nn2c(=O)c3ccccc3nc2c1=O`, the survivor count (dose: 50.0 mg/kg/injection, schedule: Q01DX009 (ip), vehicle: saline with Tween-80) was 6 of 6.

For `CCOC(=O)Nc1cc2c(c(N)n1)N=C(CN(C)c1ccccc1)CN2`, the T/C (dose: 25.0 mg/kg/injection, schedule: Q01DX001 (ip), vehicle: Klucel (hydroxypropylcellulose) (HPC)) was 132 % of control and the survivor count (dose: 200.0 mg/kg/injection, schedule: Q01DX001 (ip), vehicle: Klucel (hydroxypropylcellulose) (HPC)) was 3 of 6.

In the case of `COCC1OC(OC2OCC3OC4(OCC(O)(C(C)OC)C5OCOC54)OC3C2OC)C(OC)C(O)C1OC1OC(C)C(OC)C(OC2OC(C)C3OC4(CC(O)C(OC5CC(OC6CC(C)([N+](=O)[O-])C(OC)C(C)O6)C(OC(=O)c6c(C)c(Cl)c(O)c(Cl)c6OC)C(C)O5)C(C)O4)OC3(C)C2O)C1O` (stereo not drawn), the T/C (dose: 25.0 mg/kg/injection, schedule: Q01DX009 (ip), vehicle: saline) is reported as 127 % of control, the T/C [1] is reported as 130 % of control (2×) and the T/C [2] is reported as 139 % of control. For the same compound, the survivor count [3] was 2 of 6 and the survivor count [4] was 2 of 6.

With `C#CCCCOC(=O)Nc1ccccc1` the survivor count (dose: 200.0 mg/kg/injection, schedule: Q01DX009 (ip), vehicle: Klucel (hydroxypropylcellulose) (HPC)) was 1 of 6.

`C[C@H]1/C(=C/C(=O)OCCN(C)C)CC[C@H]2[C@H]1C(=O)C[C@H]1C(C)(C)[C@@H](O)CC[C@]21C` was tested, and the survivor count [1] was 0 of 6, the survivor count (dose: 64.0 mg/kg/injection, schedule: Q01DX010 (ip), vehicle: saline) was 0 of 6 and the survivor count [2] was 0 of 6. The survivor count (dose: 128.0 mg/kg/injection, schedule: Q01DX010 (ip), vehicle: saline) was 0 of 6, the survivor count [3] was 0 of 6 and the survivor count [4] was 0 of 6.

With `CC(=O)C(=Cc1c[nH]c2ccccc12)C(C)=O` the survivor count (dose: 50.0 mg/kg/injection, schedule: Q01DX009 (ip), vehicle: Klucel (hydroxypropylcellulose) (HPC)) was 6 of 6, the T/C (dose: 50.0 mg/kg/injection, schedule: Q04DX003 (ip), vehicle: water) was 135 % of control and the T/C (dose: 400.0 mg/kg/injection, schedule: Q04DX003 (ip), vehicle: water) was 125 % of control.

For `c1cc2cccc3c2c(c1)c1sc2c4cccc5cccc(c54)c2c31`, the survivor count (dose: 400.0 mg/kg/injection, schedule: Q04DX003 (ip), vehicle: saline with Tween-80) was 6 of 6.

With `CC[C@@]1(O)C[C@H](OC2CC(N(C)C)C(OC3CC(O)C(OC4CCC(=O)C(C)O4)C(C)O3)C(C)O2)c2c(cc3c(c2O)C(=O)c2c(O)ccc(O)c2C3=O)[C@H]1C(=O)OC` (stereo partly drawn) the T/C (dose: 0.25 mg/kg/injection, schedule: Q01DX009 (ip), vehicle: saline) was 129 % of control, the T/C (dose: 0.5 mg/kg/injection, schedule: Q01DX009 (ip), vehicle: saline) was 137 % of control and the T/C (dose: 0.65 mg/kg/injection, schedule: Q01DX009 (ip), vehicle: water) was 132 % of control. The T/C (dose: 1.73 mg/kg/injection, schedule: Q04DX003 (ip), vehicle: water) was 150, 155, 163, 167 % of control, the T/C (dose: 2.5 mg/kg/injection, schedule: Q04DX003 (ip), vehicle: water) was 148 % of control and the T/C (dose: 2.88 mg/kg/injection, schedule: Q04DX003 (ip), vehicle: water, evaluated on day 9) was 143 % of control. For the same compound, the T/C (dose: 2.88 mg/kg/injection, schedule: Q04DX003 (ip), vehicle: water, evaluated on day 60) was 166, 175, 192, 206 % of control, the T/C [5] was 130 % of control and the survivor count [5] was 8 of 8. For the same compound, the survivor count (dose: 4.0 mg/kg/injection, schedule: Q01DX003 (ip), vehicle: saline) was 6 of 6, the survivor count (dose: 4.0 mg/kg/injection, schedule: Q01DX009 (ip), vehicle: water) was 8 of 8 and the T/C (dose: 4.0 mg/kg/injection, schedule: Q04DX003 (ip), vehicle: water) was 132 % of control. For the same compound, the T/C (dose: 4.8 mg/kg/injection, schedule: Q04DX003 (ip), vehicle: water, evaluated on day 9) was 210 % of control, the T/C (dose: 4.8 mg/kg/injection, schedule: Q04DX003 (ip), vehicle: water, evaluated on day 60) was 177, 195, 223, 265 % of control and the survivor count (dose: 6.0 mg/kg/injection, schedule: Q01DX010 (ip), vehicle: saline) was 4 of 6. The T/C (dose: 6.33 mg/kg/injection, schedule: Q01DX001 (ip), vehicle: water, evaluated on day 7) was 127 % of control, the T/C (dose: 6.33 mg/kg/injection, schedule: Q01DX001 (ip), vehicle: water, evaluated on day 60) was 127 % of control and the survivor count (dose: 8.0 mg/kg/injection, schedule: Q01DX009 (ip), vehicle: water) was 4 of 8. The survivor count (dose: 8.0 mg/kg/injection, schedule: Q04DX003 (ip), vehicle: other) was 8 of 8, the T/C (dose: 8.0 mg/kg/injection, schedule: Q04DX003 (ip), vehicle: water, evaluated on day 9) was 170 and 175 % of control and the T/C (dose: 8.0 mg/kg/injection, schedule: Q04DX003 (ip), vehicle: water, evaluated on day 60) was 90, 95, 108, 125 % of control. For the same compound, the survivor count (dose: 20.0 mg/kg/injection, schedule: Q01DX001 (ip), vehicle: water) was 1 of 8.

`CN1C(=O)C(Br)=C(c2cccs2)C1=O` was tested, and the survivor count (dose: 100.0 mg/kg/injection, schedule: Q01DX001 (ip), vehicle: saline with Tween-80) was 0 of 6.
